No constants are given. Whether binding was seen depends on the method and setting. Binding seen in cells or lysates may run through a third protein. A yes stands for co-enrichment or nearness to the bait. Other partners may have been found. Where a sequence is shown, tags or fusion partners need not be part of it.
Columns and labels:
Test in all cases: affinity purification with mass spectrometry
[1] = biological target: T1, mimivirus R505, 3xHA tagged (Acanthamoeba polyphaga mimivirus)
T1 sequence: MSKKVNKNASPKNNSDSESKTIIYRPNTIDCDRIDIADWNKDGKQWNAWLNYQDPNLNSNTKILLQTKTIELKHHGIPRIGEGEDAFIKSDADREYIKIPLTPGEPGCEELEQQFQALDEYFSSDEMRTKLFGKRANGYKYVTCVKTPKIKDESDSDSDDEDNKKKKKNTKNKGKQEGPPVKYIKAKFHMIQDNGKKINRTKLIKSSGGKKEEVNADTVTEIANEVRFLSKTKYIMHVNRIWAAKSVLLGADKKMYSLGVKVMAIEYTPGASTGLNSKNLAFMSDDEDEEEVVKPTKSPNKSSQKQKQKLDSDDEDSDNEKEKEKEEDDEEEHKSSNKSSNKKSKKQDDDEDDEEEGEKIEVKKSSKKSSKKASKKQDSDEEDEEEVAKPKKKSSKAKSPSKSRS

[2] = biological target: T2, mimivirus R336/R337, 3xHA tagged (Acanthamoeba polyphaga mimivirus) (UniProt E3VZZ4)
T2 sequence: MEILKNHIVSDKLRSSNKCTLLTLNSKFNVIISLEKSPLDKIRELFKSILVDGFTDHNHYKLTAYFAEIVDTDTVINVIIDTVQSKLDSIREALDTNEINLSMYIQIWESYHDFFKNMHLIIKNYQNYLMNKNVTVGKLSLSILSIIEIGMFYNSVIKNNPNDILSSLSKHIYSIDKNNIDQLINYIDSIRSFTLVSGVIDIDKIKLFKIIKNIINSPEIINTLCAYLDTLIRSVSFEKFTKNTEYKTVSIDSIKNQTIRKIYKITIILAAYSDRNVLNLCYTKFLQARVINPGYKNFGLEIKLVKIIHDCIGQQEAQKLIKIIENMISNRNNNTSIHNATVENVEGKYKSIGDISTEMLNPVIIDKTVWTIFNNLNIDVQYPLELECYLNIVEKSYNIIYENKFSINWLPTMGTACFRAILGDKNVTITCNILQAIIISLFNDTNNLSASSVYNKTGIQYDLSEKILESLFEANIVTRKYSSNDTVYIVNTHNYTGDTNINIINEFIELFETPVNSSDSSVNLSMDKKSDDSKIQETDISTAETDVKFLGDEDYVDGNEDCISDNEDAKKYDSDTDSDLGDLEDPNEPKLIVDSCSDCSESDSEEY

[3] = biological target: T3, mimivirus R562, 3xHA tagged (Acanthamoeba polyphaga mimivirus)
T3 sequence: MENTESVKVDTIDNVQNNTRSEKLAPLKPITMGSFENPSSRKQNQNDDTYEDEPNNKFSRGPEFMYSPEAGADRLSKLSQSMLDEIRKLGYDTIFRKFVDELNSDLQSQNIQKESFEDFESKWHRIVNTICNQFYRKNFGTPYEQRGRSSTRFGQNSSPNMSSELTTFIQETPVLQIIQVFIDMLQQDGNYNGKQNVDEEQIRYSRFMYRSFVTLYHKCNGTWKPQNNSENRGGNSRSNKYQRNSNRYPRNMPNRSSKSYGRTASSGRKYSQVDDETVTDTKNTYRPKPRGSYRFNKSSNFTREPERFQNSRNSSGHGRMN

Measured: binding

B1: Inner Layer Scaffold 1 (ILS1), mimivirus R252, virus-encoded untagged protein (protein, UniProt E3VZE1 1-268)
chain: MSTRSNKKSTKTEKVAKATKPVENVEVSDNEVQEQAVKTKASGKKVTAKSTKQSGGKNAKSGSKSAKSGSKSAKSGSKTSKTQSGGKGDESRDRYFKLIDAKTGRSFGRYTGGTPKQAASKGFTKMIHKIKAEGGALPKNGTMKIYLRESTRGSPRKVYAYEATRKQLTEPQKIEIEGSDGKKKVITYRYRNVIHKVSAPLPNQLGGLKTSRSNKKSGETKKSGSRSSGSKRSAKPTKSAKNAKSTGNKKVSTKSAGAKKAPAAKASR
binds: all assays above

B2: Outer Layer Scaffold 1 (OLS1), mimivirus R561, virus-encoded untagged protein (protein, UniProt A0A0G2Y0Y5 1-256)
chain: MARGKKTQETGSSKRRSKVQEEEEHVEGSEEEVEEPEQKSSKRGSRKTTNSTSNKKKSVKKVESDDDDEDDLSELDVVVEDDNPVETSDNDEVATTPQQEKSSRSRKNRGDHESHDDNSDNEEQGDRGNRREHKPRPKVDPNTPIGKLATDQILQFLQERGEESFNPQLKHGARQLLNQLLGKYNGQRYGSKRGGPPRGSFGQRGGFNSRGRGMPPRMRQGDTRDTRDTRDTRLRFNTTQSNRRELNDQSDDLYND
binds: all assays above

Source: article doi:10.1101/2024.09.01.610734
